Measurements as given in doi:10.1101/2024.10.07.617030.
Construct, isoform or probe ends are uncertain for at least one entry. For some assays here: Negatives hold for the conditions tested. For some assays here: A weaker result is weaker than the reference pair of the same experiment. For some assays here: At least one verdict rests on a figure or table, not on a statement of the authors.

Assays:
[1] = test system: E. coli RNA polymerase core (alpha2 beta beta' omega) + DNA topoisomerase I (TopoI) wild type; assay: EMSA
[2] = test system: E. coli RNA polymerase core (alpha2 beta beta' omega) (Escherichia coli); assay: size-exclusion chromatography; conditions: RNAP EC without TopoI, purified by SEC
[3] = test system: E. coli RNA polymerase core (alpha2 beta beta' omega) + DNA topoisomerase I (TopoI) wild type; assay: size-exclusion chromatography
[4] = test system: E. coli RNA polymerase core (alpha2 beta beta' omega) + DNA topoisomerase I (TopoI) wild type; assay: cryo-EM; conditions: 5 mM Mg2+, Zn2+
[5] = test system: E. coli RNA polymerase core (alpha2 beta beta' omega) + TopoI-G703P; assay: EMSA; conditions: mutant TopoI binding to preformed RNAP EC, vs wild type
[6] = test system: E. coli RNA polymerase core (alpha2 beta beta' omega) + TopoI-Y704A; assay: EMSA; conditions: mutant TopoI binding to preformed RNAP EC, vs wild type
[7] = test system: E. coli RNA polymerase core (alpha2 beta beta' omega) + TopoI-G703P; assay: size-exclusion chromatography; conditions: co-elutes with RNAP EC, lower amount than wild type
[8] = test system: E. coli RNA polymerase core (alpha2 beta beta' omega) + TopoI-Y704A; assay: size-exclusion chromatography; conditions: co-elutes with RNAP EC, lower amount than wild type

Question: Does “CTCTGAATCTCTTCCGACGCGCCGCG / TCGGAAGAGATTCAGAG / GAGUCCGCGGCGCG [minimal scaffold]” bind ([1]; TopoI binding to preformed RNAP EC, no RNAP-TopoI complex)?
Answer: Result: no binding

Question: Does “CTCTGAATCTCTTCCGACGCGCCGCG / TCGGAAGAGATTCAGAG / GAGUCCGCGGCGCG [minimal scaffold]” bind [2]?
Answer: Result: binds

Question: Does “CTCTGAATCTCTTCCGACGCGCCGCG / TCGGAAGAGATTCAGAG / GAGUCCGCGGCGCG [minimal scaffold]” bind ([3]; TopoI does not co-elute with RNAP EC)?
Answer: Result: no binding

Question: Does “CTCTGAATCTCTTCCGACGCGCCGCGAAAATTTTTTTTAAAATTATTAATCCC / GGGATTAATAATTTTTTTCATTATTTTTATCGATCTTCGGAAGAGATTCAGAG / GAGUCCGCGGCGCG [bubble scaffold]” bind ([4]; consensus 3.8 A)?
Answer: Result: binds

Question: Does “CTCTGAATCTCTTCCGACGCGCCGCGAAAATTTTTTTTTTTTTTTTTTTT / TTAGTTAGTTTTTTTCATTATTTTTATCGATCTTCGGAAGAGATTCAGAG / GAGUCCGCGGCGCG [long overhang scaffold]” bind ([4]; at least two orientations)?
Answer: Result: binds

Question: Does “CTCTGAATCTCTTCCGACGCGCCGCGGGACGTACTGACCTTAGAT / TAGATTGGTCAGTACGTCCTATCGATCTTCGGAAGAGATTCAGAG / GAGUCCGCGGCGCG [short overhang scaffold]” bind [4]?
Answer: Result: binds

Question: Does “CTCTGAATCTCTTCCGACGCGCCGCGGGACGTACTGACC / GGTCAGTACGTCCTATCGATCTTCGGAAGAGATTCAGAG / GAGUCCGCGGCGCG [duplex scaffold]” bind ([1]; TopoI binding to preformed RNAP EC (2 uM EC, 2-6 uM TopoI))?
Answer: Result: binds

Question: Does “CTCTGAATCTCTTCCGACGCGCCGCGGGACGTACTGACC / GGTCAGTACGTCCTATCGATCTTCGGAAGAGATTCAGAG / GAGUCCGCGGCGCG [duplex scaffold]” bind [5]?
Answer: Result: binds more weakly

Question: Does “CTCTGAATCTCTTCCGACGCGCCGCGGGACGTACTGACC / GGTCAGTACGTCCTATCGATCTTCGGAAGAGATTCAGAG / GAGUCCGCGGCGCG [duplex scaffold]” bind [6]?
Answer: Result: binds more weakly

Question: Does “CTCTGAATCTCTTCCGACGCGCCGCGGGACGTACTGACC / GGTCAGTACGTCCTATCGATCTTCGGAAGAGATTCAGAG / GAGUCCGCGGCGCG [duplex scaffold]” bind ([4]; equimolar EC and TopoI)?
Answer: Result: binds

Question: Does “CTCTGAATCTCTTCCGACGCGCCGCGGGACGTACTGACC / GGTCAGTACGTCCTATCGATCTTCGGAAGAGATTCAGAG / GAGUCCGCGGCGCG [duplex scaffold]” bind [2]?
Answer: Result: binds

Question: Does “CTCTGAATCTCTTCCGACGCGCCGCGGGACGTACTGACC / GGTCAGTACGTCCTATCGATCTTCGGAAGAGATTCAGAG / GAGUCCGCGGCGCG [duplex scaffold]” bind ([3]; TopoI co-elutes with RNAP EC)?
Answer: Result: binds

Question: Does “CTCTGAATCTCTTCCGACGCGCCGCGGGACGTACTGACC / GGTCAGTACGTCCTATCGATCTTCGGAAGAGATTCAGAG / GAGUCCGCGGCGCG [duplex scaffold]” bind [7]?
Answer: Result: binds more weakly

Question: Does “CTCTGAATCTCTTCCGACGCGCCGCGGGACGTACTGACC / GGTCAGTACGTCCTATCGATCTTCGGAAGAGATTCAGAG / GAGUCCGCGGCGCG [duplex scaffold]” bind [8]?
Answer: Result: binds more weakly
